The values below come from paper PMC7521923.

Sequences of proteins named here, by UniProt entry; tags and fusion partners are left off. A change or cut given only in a name is not applied to a line headed by its entry. Residues count along the entry.
UniProt Q9ULT6: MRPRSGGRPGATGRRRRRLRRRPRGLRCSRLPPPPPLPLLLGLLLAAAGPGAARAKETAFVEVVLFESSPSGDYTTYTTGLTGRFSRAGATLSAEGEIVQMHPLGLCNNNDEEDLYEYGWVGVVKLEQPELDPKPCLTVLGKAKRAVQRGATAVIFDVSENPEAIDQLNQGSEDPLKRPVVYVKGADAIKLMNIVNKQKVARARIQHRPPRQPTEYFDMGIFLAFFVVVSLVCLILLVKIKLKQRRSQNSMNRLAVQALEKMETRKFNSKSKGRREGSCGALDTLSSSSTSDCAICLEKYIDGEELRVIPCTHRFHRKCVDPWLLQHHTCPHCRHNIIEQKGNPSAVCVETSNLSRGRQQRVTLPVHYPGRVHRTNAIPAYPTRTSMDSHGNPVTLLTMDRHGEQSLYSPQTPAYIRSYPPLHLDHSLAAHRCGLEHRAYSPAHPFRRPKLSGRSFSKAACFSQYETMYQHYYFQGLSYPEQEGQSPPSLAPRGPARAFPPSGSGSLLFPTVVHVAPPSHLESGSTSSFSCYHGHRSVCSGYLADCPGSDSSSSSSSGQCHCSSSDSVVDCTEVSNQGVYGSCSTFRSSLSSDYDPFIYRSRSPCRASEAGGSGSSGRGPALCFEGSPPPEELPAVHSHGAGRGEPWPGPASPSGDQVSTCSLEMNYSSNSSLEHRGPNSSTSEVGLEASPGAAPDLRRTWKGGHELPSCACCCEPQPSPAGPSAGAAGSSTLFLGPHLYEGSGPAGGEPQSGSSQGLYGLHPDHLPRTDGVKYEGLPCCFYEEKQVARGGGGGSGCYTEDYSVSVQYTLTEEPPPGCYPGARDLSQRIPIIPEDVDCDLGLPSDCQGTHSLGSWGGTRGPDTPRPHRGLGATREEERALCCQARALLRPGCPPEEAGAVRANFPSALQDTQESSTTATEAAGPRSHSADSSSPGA
UniProt Q13467, residues 27-585: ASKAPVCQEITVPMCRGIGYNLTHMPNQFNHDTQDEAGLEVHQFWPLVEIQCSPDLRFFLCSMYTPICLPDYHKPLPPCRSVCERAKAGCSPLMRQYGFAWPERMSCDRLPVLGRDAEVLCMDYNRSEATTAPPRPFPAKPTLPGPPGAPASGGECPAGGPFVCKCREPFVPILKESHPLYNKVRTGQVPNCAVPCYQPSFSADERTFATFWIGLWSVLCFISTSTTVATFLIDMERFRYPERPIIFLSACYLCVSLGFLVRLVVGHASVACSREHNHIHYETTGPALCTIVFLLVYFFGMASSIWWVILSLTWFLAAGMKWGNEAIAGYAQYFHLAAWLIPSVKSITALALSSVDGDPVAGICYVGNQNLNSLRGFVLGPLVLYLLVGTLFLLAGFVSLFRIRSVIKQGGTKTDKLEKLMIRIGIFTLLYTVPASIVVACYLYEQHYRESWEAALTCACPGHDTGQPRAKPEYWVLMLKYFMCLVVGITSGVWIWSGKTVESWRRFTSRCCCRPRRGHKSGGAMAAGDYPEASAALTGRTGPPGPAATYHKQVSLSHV

Experiment [1] deals with ZNRF3ΔRING (UniProt Q9ULT6). Nature of the experiment: co-IP; both partners expressed in transfected HEK293T cells (FZD5-USP8 also in T79KO cells and with TMEM79 overexpressed; USP8-TMEM79 in FZD null cells); NP40 lysis buffer (50 mM Tris pH 7.5, 150 mM NaCl, 1 mM EDTA, 1% NP40, 10% glycerol, 10 mM NaF); antibody-conjugated agarose beads (anti-c-Myc, anti-HA, anti-Flag M2 or anti-V5) at 4°C overnight; five washes; immunoblot. A general note: Immunoblotting shows a protein as a band on a membrane.

Experiment [2] concerns the target USP8CΔ. Described as above.

No constants are given. Whether binding was seen depends on the method and setting. In cells and extracts the contact can be indirect. A result given as binding can be weak or reduced; the word gives no strength.

Consider “FZD5 (transfected) (from UniProt Q13467 27-585) (receptor)”, for which the binding entry in experiment [1] was “binds”.

B1: TMEM79 (FL, full length) (protein, UniProt Q9D709 1-391)
chain: MTEPETLALLDMKEPETPEKSPPQALVLQSEEEGGTESPGTESLRVGSSVGSPIVREGPEDGPDSTISEAATLPWGTDPHPSAPLPDPPGWRDIEPEPLESEAPTKSEEPFKEDANLLPEKTVRAFVPIDLQCIERKPQEERILHRDAGPGELRNFLPARLSHPEPPERKWAEAVVRPPGRSCGGCGSCGGREALRAVASVVAALIFFPCLLYGAYAFLPFDAPRLPTMSSRLVYTLRCGVFATFPIVLGLLVYGLSLLCFSALRPFGEPRREVEIHRQYVAQSVQLFILYFFNLAVLSTYLPQDTLKLLPLLTGLFAISRLIYWLTFAVGRSFRGFGYGLTFLPLLAMLVWNLYYMFVVEPERMLTASESRLDYPDHARSVSDYRPRSWG
In the case of B1, the binding result in experiment [2] is “binds”.
